Measurements from paper PMC9177158.
No constants are given. Whether binding was seen depends on the method and setting. Binding seen in cells or lysates may run through a third protein. Some entries that bind do so weakly or less than the wild type.

T1: Uncoupling protein-2 (rat, endogenous in kidney cortex) (rat (endogenous in rat kidney cortex)) (UniProt P56500)
T1 sequence: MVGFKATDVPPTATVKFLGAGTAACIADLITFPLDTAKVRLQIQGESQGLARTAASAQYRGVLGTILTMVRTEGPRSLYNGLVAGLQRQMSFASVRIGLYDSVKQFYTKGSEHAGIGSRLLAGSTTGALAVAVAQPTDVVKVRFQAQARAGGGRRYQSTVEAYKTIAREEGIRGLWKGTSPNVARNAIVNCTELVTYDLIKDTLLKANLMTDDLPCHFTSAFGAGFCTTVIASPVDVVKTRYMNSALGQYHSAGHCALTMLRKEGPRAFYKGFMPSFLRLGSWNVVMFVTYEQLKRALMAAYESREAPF

T2: Adenine nucleotide translocase-2 (rat, endogenous in kidney cortex) (rat (endogenous in rat kidney cortex)) (UniProt Q09073)
T2 sequence: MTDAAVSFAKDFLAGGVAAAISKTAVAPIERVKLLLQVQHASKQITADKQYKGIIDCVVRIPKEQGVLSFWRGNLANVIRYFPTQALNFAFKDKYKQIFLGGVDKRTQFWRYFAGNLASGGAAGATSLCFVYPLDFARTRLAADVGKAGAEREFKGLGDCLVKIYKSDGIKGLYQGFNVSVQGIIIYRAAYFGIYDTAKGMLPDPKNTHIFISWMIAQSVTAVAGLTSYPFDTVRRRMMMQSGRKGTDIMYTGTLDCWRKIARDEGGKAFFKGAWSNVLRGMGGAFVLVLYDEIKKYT

B1: Adenine nucleotide translocase-2 (rat, endogenous in kidney cortex) (protein, UniProt Q09073 1-298)
chain: T2 sequence
B2: Uncoupling protein-2 (rat, endogenous in kidney cortex) (protein, UniProt P56500 1-309)
chain: T1 sequence

Assays:
[1] = biological target: T1, Uncoupling protein-2 (rat, endogenous in kidney cortex) (rat (endogenous in rat kidney cortex)); assay: co-IP; as a1, samples incubated with GDP
[2] = biological target: T1, Uncoupling protein-2 (rat, endogenous in kidney cortex) (rat (endogenous in rat kidney cortex)); assay: co-IP; reciprocal; rat kidney cortex lysate, kit lysis buffer adjusted to 100 mM NaCl; anti-UCP2 or anti-ANT2 monoclonal antibody cross-linked to magnetic beads; room temperature, 35 min; immunoblot; no inhibitor
[3] = biological target: T2, Adenine nucleotide translocase-2 (rat, endogenous in kidney cortex) (rat (endogenous in rat kidney cortex)); assay: co-IP; as a1, samples incubated with GDP
[4] = biological target: T2, Adenine nucleotide translocase-2 (rat, endogenous in kidney cortex) (rat (endogenous in rat kidney cortex)); assay: co-IP; reciprocal; rat kidney cortex lysate, kit lysis buffer adjusted to 100 mM NaCl; anti-UCP2 or anti-ANT2 monoclonal antibody cross-linked to magnetic beads; room temperature, 35 min; immunoblot; no inhibitor

Binder | binding [1] | binding [2] | binding [3] | binding [4]
B1 | no binding (condition: samples incubated with GDP) | binds | – | –
B2 | – | – | no binding (condition: samples incubated with GDP) | binds
